Measurements reported in publication PMC9518246, “Design and synthesis of new indole drug candidates to treat Alzheimer’s disease and targeting neuro-inflammation using a multi-target-directed ligand (MTDL) strategy” (Journal of Enzyme Inhibition and Medicinal Chemistry, 2022).
In brackets after ≈: the same amount, converted by molar mass.

Key:
in vitro [1] = type: cell-based; details: human
Description: (§1) An MTT assay was performed to investigate the effect of the selected two compounds, 5b and 6b, on cell viability using human neuroblastoma (SH-SY5Y) and normal hepatic (THLE2) cell lines. […]. Microglia cell Line, BV-2, human neuroblastoma (SH-SY5Y), and normal hepatic (THLE2) cells were obtained from American Type Culture Collection, cells were cultured using DMEM (Invitrogen/Life Technologies, Carlsbad, CA) supplemented with 10% FBS (Hyclone), 10 µg/mL of insulin (Sigma, St. Louis, MO), and 1% penicillin-streptomycin. All of the other chemicals and reagents were from Sigma, or Invitrogen. Plate cells (cells density 1.2 − 1.8 × 10,000 cells/well) in a volume of 100 µL complete growth medium + 100 µL of the tested compounds per well in a 96-well plate for 24 h before the MTT assay.
(§2) After treatment of cells with the serial concentrations of the compound to be tested, incubation is carried out for 48 h at 37 °C, and then the plates are to be examined under the inverted microscope and proceed for the MTT assay. […]
(§3) Mitochondrial dehydrogenases of viable cells cleave the tetrazolium ring, yielding purple formazan crystals which are insoluble in aqueous solutions. […] The resulting purple solution is spectrophotometrically measured at a wavelength of 570 nm. Measure the background absorbance of multiwell plates at 690 nm and subtract from the 570 nm measurement.

in vitro [2] = type: cell-based; details: human; remark: listed apart in the source
Description: as §1, §2, §3

SMILES: CN[C@@H]1C[C@H]2O[C@@](C)([C@@H]1OC)n1c3ccccc3c3c4c(c5c6ccccc6n2c5c31)C(=O)NC4 [staurosporine, reference compound]
- IC50 (in vitro [1]): 34.6 mg/L (≈ 74.2 µM)
- IC50 (in vitro [2]): 11.1 mg/L (≈ 23.8 µM)
